Reference: PubChem BioAssay AID2551 (National Center for Advancing Translational Sciences (NCATS), 2010)
“And” between values parts separate entries of the source, which are not always exact repeats. Equal values may be shown once. Among all 310,000 compounds or so, about 17,000 (5.5%) were called active. The shares of active, inactive and inconclusive entries below differ from those in the screen. Calls follow the shape of the dose curve; as a rule, active = well fitted inhibition curve with a large enough effect; inconclusive = small, poorly fitted or top-dose-only effect, or effect the other way; inactive = no such curve, though single readings can be large or run the other way. Potencies beside an inconclusive call are fits to weak or partial responses and may not hold up.

The chains behind the UniProt entries cited, without tags or fusion partners. Where a name states a change or a piece, a line headed by the entry shows the natural chain unless it says otherwise.
UniProt P51450: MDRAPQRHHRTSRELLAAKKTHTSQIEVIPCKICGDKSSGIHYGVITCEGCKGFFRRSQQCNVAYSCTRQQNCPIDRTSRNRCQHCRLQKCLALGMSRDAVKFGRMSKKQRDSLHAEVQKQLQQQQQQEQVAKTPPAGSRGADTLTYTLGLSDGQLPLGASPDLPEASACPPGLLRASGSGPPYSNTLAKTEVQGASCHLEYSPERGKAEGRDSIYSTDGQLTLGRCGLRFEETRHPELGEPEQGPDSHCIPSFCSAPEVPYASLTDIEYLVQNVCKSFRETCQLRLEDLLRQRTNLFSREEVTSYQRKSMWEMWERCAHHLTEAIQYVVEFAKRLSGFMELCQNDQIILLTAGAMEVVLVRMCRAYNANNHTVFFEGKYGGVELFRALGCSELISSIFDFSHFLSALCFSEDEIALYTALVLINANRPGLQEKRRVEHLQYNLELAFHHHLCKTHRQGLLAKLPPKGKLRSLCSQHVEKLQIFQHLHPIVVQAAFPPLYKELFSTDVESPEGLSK

These compounds were tested against Nuclear receptor ROR-gamma (Mus musculus) (UniProt P51450) (assay: qHTS for inhibitors of ROR gamma transcriptional activity). Conditions: Drosophila S2 Gal4-RORgamma UAS-luciferase reporter, 20 h; activity change, negative = inhibition: at 53.6 µM (top of the series).
Summary of the method: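 Using a luciferase readout, inhibitors were identified by reduced reporter activity in Drosophila cells coexpressing a copper-inducible Gal4–ROR gamma fusion and UAS-driven Photinus luciferase, incubated 20 hr after 700 uM copper sulfate.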
% is scaled to controls: 0 for no effect and ±100 for the full control effect; potency is read from the fitted curve at half-maximal effect.
Also: nearly all actives have a fitted effect of over 60% in size.

Question: `CCNc1nc(OCC)nc(N2CCC(Cc3ccccc3)CC2)n1` was tested. Which Potency did it give?
Answer: Its Potency is active: 5.62 µM.

Question: How did the “activity change, negative = inhibition” value turn out when `CCOC(=O)C1(C(=O)OCC)CC1c1ccccc1` (stereo not given) was run?
Answer: Its value is inactive: -15.5%.

Question: Which Potency does the source give for `O=C(NNC1=C(C(=O)C(F)(F)F)CCC1)c1ccc(Cl)cc1` here?
Answer: The Potency was active: 11.2 µM.

Question: With `CC(C)CC(COCc1ccc(Cl)cc1)N1CCN(C(=O)c2ccc(C(F)(F)F)cc2)CCC1=O` (stereo not given) as the compound, how does the Potency read?
Answer: The Potency was inconclusive: 35.5 µM [activator, single point].

Question: With `C=CCn1c2ccccc2c2nnc(SCCN3CCCCC3)nc21` as the compound, how does the activity change, negative = inhibition read?
Answer: Its activity change, negative = inhibition is inactive: -9% [at 1.91 µM].

Question: With `COc1ccc(NC(=S)N(CCCN2CCC(C)CC2)Cc2cccs2)cc1Cl` as the compound, how does the Potency read?
Answer: The Potency was active: 11.2 µM.

Question: `Cc1cc(N2CCN(C)CC2)ccc1NC(=O)c1cccc(S(=O)(=O)N2CCc3ccccc3C2)c1` was tested. Which Potency did it give?
Answer: Its Potency is inconclusive: 20 µM [inhibitor, single point].

Question: With `COCCOC(=O)C1=C(C)NC(C)=C(C(=O)OC(C)C)C1c1cccc([N+](=O)[O-])c1` (stereo not given) as the compound, how does the Potency read?
Answer: The Potency was inconclusive: 31.6 µM [activator, single point] and inconclusive: 14.1 µM [activator, partial curve].

Question: With `COc1cccc(NC(=O)C2CCCO2)c1` (stereo not given) as the compound, how does the Potency read?
Answer: The Potency was inconclusive: 0.282 µM [inhibitor, single point].

Question: How did the Potency turn out when `COCCCNC(=S)NNC(=S)Nc1ccccc1` was run?
Answer: Its Potency is inconclusive: 35.5 µM [inhibitor, single point].

Question: For `COC(=O)c1sc(NC(=S)NC(=O)c2ccccc2C)nc1C`, which Potency is on record?
Answer: The Potency was active: 6.31 µM.

Question: Which “activity change, negative = inhibition” value does the source give for `O=C(NCCc1cccs1)c1ccc(Cl)c(Cl)c1` here?
Answer: Its value is inactive: 29%.

Question: Which activity change, negative = inhibition does the source give for `COc1ccc(N2CSC3=C(C#N)C(c4cccs4)CC(=O)N3C2)cc1` (stereo not given) here?
Answer: The activity change, negative = inhibition was inactive: 17% [at 10 µM].

Question: How did the Potency turn out when `O=C(O)c1cc2cc(Cl)ccc2oc1=O` was run?
Answer: Its Potency is inconclusive: 3.16 µM [activator, single point].

Question: Which Potency does the source give for `O=c1c2ccccc2c(-c2ccc(F)cc2)nn1-c1ccc(C(F)(F)F)cc1` here?
Answer: Its Potency is inconclusive: 11.2 µM [activator, partial curve].

Question: Which Potency does the source give for `O=C(NNC(=S)Nc1ccccc1)Nc1ccccc1` here?
Answer: The Potency was inconclusive: 35.5 µM [inhibitor, single point].

Question: `NC(=O)c1cc(N2C(=O)C=CC2=O)ccc1Cl` was tested. Which Potency did it give?
Answer: Its Potency is active: 7.08 µM.

Question: `CS(=O)(=O)c1ccccc1C(=O)Nc1ccc(-c2nc3ccccc3[nH]2)cc1` was tested. Which Potency did it give?
Answer: The Potency was inconclusive: 12.6 µM [activator, partial curve, poor fit].

Question: `CCN1CCN(C(=O)N(c2ccccc2)c2ccccc2)CC1` was tested. Which Potency did it give?
Answer: The Potency was inconclusive: 14.1 µM [activator, partial curve].

Question: Which “activity change, negative = inhibition” value does the source give for `COc1ccccc1CN1C[C@@H]2C[C@@H](c3ccccc3C)N3CCC[C@@]23C1=O` here?
Answer: Its value is inactive: 14.1%.

Question: `COc1ccc(C2C=C(c3ccc(C)cc3)Nc3ncnn32)cc1` (stereo not given) was tested. Which Potency did it give?
Answer: The Potency was inconclusive: 0.1 µM [inhibitor, full curve, poor fit].

Question: `Cc1ccc(-c2c[n+](Cc3ccc(Cl)c(Cl)c3)c3n2CCC3)cc1` was tested. Which Potency did it give?
Answer: The Potency was inconclusive: 17.8 µM [activator, partial curve].

Question: Which Potency does the source give for `O=C(Nc1nc2ccccc2[nH]1)NC1CCCCC1` here?
Answer: The Potency was active: 11.2 µM.

Question: Which Potency does the source give for `O=C(CN1CCN(c2ncc(C(F)(F)F)cc2Cl)CC1)Nc1ccc2c(c1)OCO2` here?
Answer: Its Potency is inconclusive: 0.891 µM [activator, single point].

Question: With `NC(=O)CN1CCN(S(=O)(=O)c2ccc(Br)cc2)CC1` as the compound, how does the “activity change, negative = inhibition” value read?
Answer: Its value is inactive: -23.5%.

Question: How did the Potency turn out when `Nc1nc(CN2CCN(c3ccc(F)cc3)CC2)nc(N2CCCc3ccccc32)n1` was run?
Answer: Its Potency is inconclusive: 35.5 µM [inhibitor, single point].

Question: `c1ccc2c(-c3[nH]ncc3CNCCCn3ncc4ccccc43)cccc2c1` was tested. Which Potency did it give?
Answer: Its Potency is inconclusive: 35.5 µM [inhibitor, single point].

Question: `CCOc1ccc(NC(=O)CC2C(=O)N(C)C(=S)N2Cc2ccco2)cc1` (stereo not given) was tested. Which Potency did it give?
Answer: The Potency was inconclusive: 12.6 µM [activator, single point].

Question: `CCN(CC)C(=O)C(=O)Nc1ccc(F)c(Cl)c1` was tested. Which Potency did it give?
Answer: The Potency was inconclusive: 6.31 µM [inhibitor, single point].

Question: How did the “activity change, negative = inhibition” value turn out when `CC(CCN1CCN=C1Nc1ccccc1)c1ccccc1` (stereo not given) was run?
Answer: The value was inactive: -14.5%.

Question: How did the Potency turn out when `CC(C)(C)c1ccc(OCCNC(=S)NC(=O)c2cccnc2)cc1` was run?
Answer: Its Potency is active: 12.6 µM.

Question: How did the Potency turn out when `COn1c(SC(C)C)nc2ccccc2c1=O` was run?
Answer: Its Potency is inconclusive: 20 µM [activator, partial curve, poor fit].

Question: Which Potency does the source give for `CC1CCCN(S(=O)(=O)c2csc(C(N)=O)c2)C1` (stereo not given) here?
Answer: Its Potency is inconclusive: 0.282 µM [inhibitor, full curve, poor fit].

Question: With `CCc1ccccc1NC(=O)Nc1ccc(F)cc1F` as the compound, how does the “activity change, negative = inhibition” value read?
Answer: Its value is inactive: 37%.

Question: `C=CCOc1c(CNc2nccs2)cccc1OCC` was tested. Which Potency did it give?
Answer: Its Potency is active: 11.2 µM.

Question: `CC1=C(C(=O)Nc2ccccc2)C(c2ccncc2)C(C#N)=C(SCC(=O)NC2CC2)N1` (stereo not given) was tested. Which “activity change, negative = inhibition” value did it give?
Answer: The value was inactive: -12%.

Question: `CC(C)c1ccc(C(=O)NC2=NCCS2)cc1` was tested. Which Potency did it give?
Answer: The Potency was inconclusive: 15.8 µM [inhibitor, single point].

Question: How did the Potency turn out when `CCOc1ccc(/C=C2\SC(=S)N(CCCC(=O)NCCCN3CCOCC3)C2=O)cc1` was run?
Answer: The Potency was active: 0.398 µM.

Question: Which Potency does the source give for `Cc1cccc(NS(=O)(=O)c2ccc(C)c(C(=O)OCC(=O)Nc3cc(C)on3)c2)c1` here?
Answer: Its Potency is inconclusive: 35.5 µM [activator, single point].

Question: `O=C(NCCO)/C(=C\c1ccco1)NC(=O)c1cccs1` was tested. Which Potency did it give?
Answer: The Potency was inconclusive: 4.47 µM [inhibitor, partial curve].

Question: With `COc1ccc(C(=O)NC(=S)Nc2ccc(Cl)cn2)cc1OC` as the compound, how does the Potency read?
Answer: Its Potency is active: 7.94 µM.

Question: Which “activity change, negative = inhibition” value does the source give for `O=S(=O)(Nc1ccc(C(F)(F)F)cn1)c1ccccc1` here?
Answer: The value was inactive: 11.2%.

Question: How did the “activity change, negative = inhibition” value turn out when `O=C1C2C3CCCC3=C3CCCC3C2C(=O)N1c1cccc(Cl)c1` (stereo not given) was run?
Answer: Its value is inactive: -12%.

Question: Which Potency does the source give for `COCC1CCN(Cc2nc(COc3ccccc3)no2)C1` (stereo not given) here?
Answer: Its Potency is inconclusive: 35.5 µM [inhibitor, single point].

Question: Which “activity change, negative = inhibition” value does the source give for `COCC(=O)N1CCC(Oc2ccc(C(=O)N3CCCCC3COC)cc2)CC1` (stereo not given) here?
Answer: Its value is inactive: 2.97%.

Question: `COc1cccc(Cc2n[nH]c(=S)n2Cc2ccco2)c1` was tested. Which Potency did it give?
Answer: The Potency was active: 3.55 µM.

Question: Which Potency does the source give for `CCC(=O)N1CCN(c2ccc(NC(=S)NC(=O)COc3ccccc3)cc2)CC1` here?
Answer: Its Potency is inconclusive: 35.5 µM [inhibitor, single point].

Question: For `Cc1cccc(NC(=O)Cn2c(O)c(N=NC(N)=S)c3ccccc32)c1`, which Potency is on record?
Answer: The Potency was inconclusive: 11.2 µM [inhibitor, partial curve, poor fit].

Question: Which Potency does the source give for `O=C(Nc1nc2ccccc2[nH]1)C1CCCC1` here?
Answer: Its Potency is active: 7.08 µM.

Question: Which “activity change, negative = inhibition” value does the source give for `COc1ccc2oc(=O)c(C(=O)NCc3ccco3)cc2c1` here?
Answer: Its value is inactive: 15.6%.

Question: With `CCCC1=C(C(=O)OCC)C(c2ccc(F)cc2)n2ncnc2N1` (stereo not given) as the compound, how does the Potency read?
Answer: The Potency was inconclusive: 20 µM [inhibitor, partial curve, poor fit].

Question: With `Cc1ccccc1NC(=S)NC(=O)C1CCCCC1` as the compound, how does the Potency read?
Answer: The Potency was active: 3.98 µM.

Question: For `CCOc1ccc(NC(=O)CCNS(=O)(=O)c2ccc3c(c2)CC(C)N3C(C)=O)cc1` (stereo not given), which “activity change, negative = inhibition” value is on record?
Answer: The value was inactive: -17.9%.

Question: How did the Potency turn out when `Cc1cc2ncn(-c3ncnc4scc(-c5ccccc5)c34)c2cc1C` was run?
Answer: The Potency was active: 5.62 µM.

Question: Which “activity change, negative = inhibition” value does the source give for `COc1ccc(-c2cc(C(=O)Nc3c(C)nn(Cc4ccccc4)c3C)no2)cc1` here?
Answer: The value was inactive: -23.2%.

Question: How did the Potency turn out when `O=[N+]([O-])c1ccc(N/N=C2/CCCCC2c2ccccn2)c([N+](=O)[O-])c1` (stereo not given) was run?
Answer: The Potency was inconclusive: 15.8 µM [inhibitor, single point].

Question: How did the Potency turn out when `O=C(NCCC1CC1(Cl)Cl)Nc1ccccc1` (stereo not given) was run?
Answer: The Potency was inconclusive: 15.8 µM [activator, single point].

Question: With `Nc1ccc(S(=O)(=O)NNC(=O)C(=O)NNc2ccccc2)cc1` as the compound, how does the activity change, negative = inhibition read?
Answer: The activity change, negative = inhibition was inactive: 8.53% [at 10 µM].

Question: Which “activity change, negative = inhibition” value does the source give for `CCCCS/C(=C(/C#N)C(N)=O)c1cc2c([nH]1)CCCC2` here?
Answer: Its value is inactive: 17.7%.

Question: With `COc1cccc(C(=O)NNC(=S)NC2CCCCC2)c1` as the compound, how does the Potency read?
Answer: Its Potency is inconclusive: 22.4 µM [inhibitor, single point].

Question: Which Potency does the source give for `Cc1ccc(N/C=C(\C2OC(=O)c3ccccc32)[N+](=O)[O-])c(C)c1` (stereo not given) here?
Answer: The Potency was inconclusive: 10 µM [inhibitor, partial curve].

Question: With `Cc1ccc(-c2nc3ccccc3o2)cc1NC(=O)c1ccc2c(c1)OCO2` as the compound, how does the Potency read?
Answer: The Potency was inconclusive: 6.31 µM [activator, partial curve, poor fit].

Question: How did the Potency turn out when `CC1CCCC(NC(=O)COC(=O)c2ccccc2[N+](=O)[O-])C1C` (stereo not given) was run?
Answer: Its Potency is inconclusive: 10 µM [activator, partial curve].

Question: Which Potency does the source give for `NC(=O)CSCc1nc2ccccc2s1` here?
Answer: The Potency was inconclusive: 35.5 µM [inhibitor, single point].

Question: With `O=C(N/N=C/C(Br)=C/c1ccccc1)c1cnccn1` as the compound, how does the Potency read?
Answer: The Potency was inconclusive: 35.5 µM [inhibitor, single point].
